# Results: patent publication US20190381086A1, “INHIBITION OF NEDDYLATION USING GLYCYL-tRNA SYNTHETASE INHIBITORS” (The Scripps Research Institute, priority 2015, published 2019)
# Chains of the proteins cited; added tags and fusions are not shown. Residues count along the entry.
# UniProt Q15843, residues 1-76: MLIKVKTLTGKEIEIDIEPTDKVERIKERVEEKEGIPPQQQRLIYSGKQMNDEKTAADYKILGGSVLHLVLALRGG
# No constants are given. Whether binding was seen depends on the method and setting. For some of these results: In cells and extracts the contact can be indirect. Some results given as binding are weak or reduced against the parent protein; the word gives no strength. For some of these results: Sequences can lack the tags named with a protein.
# T1: GST-Ubc12
# T1 sequence (chain, by the resolver, N-terminal GST fusion, not carried in the letters): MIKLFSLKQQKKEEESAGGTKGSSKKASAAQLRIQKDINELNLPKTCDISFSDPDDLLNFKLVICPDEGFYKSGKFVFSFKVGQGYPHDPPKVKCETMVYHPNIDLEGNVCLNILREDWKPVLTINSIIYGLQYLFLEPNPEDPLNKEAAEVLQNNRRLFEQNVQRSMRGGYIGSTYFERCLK
# T2: GST-APPBP1 (UniProt Q13564)
# T2 sequence (looked up): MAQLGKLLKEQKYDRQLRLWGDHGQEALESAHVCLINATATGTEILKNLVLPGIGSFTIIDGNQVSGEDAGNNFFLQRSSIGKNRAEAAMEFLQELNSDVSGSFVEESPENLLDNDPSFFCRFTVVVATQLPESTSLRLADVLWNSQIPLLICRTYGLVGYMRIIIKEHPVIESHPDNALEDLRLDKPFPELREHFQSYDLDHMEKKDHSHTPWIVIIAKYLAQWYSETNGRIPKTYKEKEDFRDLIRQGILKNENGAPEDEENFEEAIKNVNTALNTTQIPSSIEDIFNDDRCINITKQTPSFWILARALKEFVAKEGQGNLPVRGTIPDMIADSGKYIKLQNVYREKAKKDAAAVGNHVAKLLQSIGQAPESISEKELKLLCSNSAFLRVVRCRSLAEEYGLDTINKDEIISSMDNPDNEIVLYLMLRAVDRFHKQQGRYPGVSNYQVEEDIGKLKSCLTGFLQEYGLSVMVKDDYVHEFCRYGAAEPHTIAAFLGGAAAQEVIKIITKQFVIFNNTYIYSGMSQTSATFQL
# Key:
# NEDD8 [1] = molecular target: NEDD8 (UniProt Q15843); assay: His-tag pull-down on nickel-NTA beads, blot anti-NEDD8
# NEDD8 [2] = molecular target: NEDD8 (UniProt Q15843); assay: His-tag pull-down
# GST-Ubc12 = molecular target: T1, GST-Ubc12; assay: GST pull-down on glutathione beads, blot anti-GlyRS
# GST-APPBP1 = molecular target: T2, GST-APPBP1; assay: as above
# [3] = molecular target: E1 for neddylation, APPBP1/UBA3 heterodimer (UniProt Q13564); assay: biolayer interferometry, E1 immobilized, 62.5-500 nM
# [4] = molecular target: E1 for neddylation, APPBP1/UBA3 heterodimer (UniProt Q13564); assay: GST pull-down and biolayer interferometry
# [5] = molecular target: Flag-tagged Ubc12-C111S expressed in HEK293 cells, unconjugated (UniProt P61081); assay: co-immunoprecipitation, HEK293 cells
binding (NEDD8 [1]),binding (NEDD8 [2]),binding (GST-Ubc12),binding (GST-APPBP1),binding [3],binding [4],binding [5],Binder
binds,binds,–,–,–,–,–,"His-tagged full-length human GlyRS (glycyl-tRNA synthetase) (enzyme, not shown: small tags and cut ends) MDGAGAEEVLAPLRLAVRQQGDLVRKLKEDKAPQVDVDKAVAELKARKRVLEAKELALQPKDDIVDRAKMEDTLKRRFFYDQAFAIYGGVSGLYDFGPVGCALKNNIIQTWRQHFIQEEQILEIDCTMLTPEPVLKTSGHVDKFADFMVKDVKNGECFRADHLLKAHLQKLMSDKKCSVEKKSEMESVLAQLDNYGQQELADLFVNYNVKSPITGNDLSPPVSFNLMFKTFIGPGGNMPGYLRPETAQGIFLNFKRLLEFNQGKLPFAAAQIGNSFRNEISPRSGLIRVREFTMAEIEHFVDPSEKDHPKFQNVADLHLYLYSAKAQVSGQSARKMRLGDAVEQGVINNTVLGYFIGRIYLYLTKVGISPDKLRFRQHMENEMAHYACDCWDAESKTSYGWIEIVGCADRSCYDLSCHARATKVPLVAEKPLKEPKTVNVVQFEPSKGAIGKAYKKDAKLVMEYLAICDECYITEMEMLLNEKGEFTIETEGKTFQLTKDMINVKRFQKTLYVEEVVPNVIEPSFGLGRIMYTVFEHTFHVREGDEQRTFFSFPAVVAPFKCSVLPLSQNQEFMPFVKELSEALTRHGVSHKVDDSSGSIGRRYARTDEIGVAFGVTIDFDTVNKTPHTATLRDRDSMRQIRAEISELPSIVQDLANGNITWADVEARYPLFEGQETGKKETIEE"
binds,–,binds,binds,binds,–,–,"ΔWHEP GlyRS (enzyme, not shown: small tags and cut ends) IVDRAKMEDTLKRRFFYDQAFAIYGGVSGLYDFGPVGCALKNNIIQTWRQHFIQEEQILEIDCTMLTPEPVLKTSGHVDKFADFMVKDVKNGECFRADHLLKAHLQKLMSDKKCSVEKKSEMESVLAQLDNYGQQELADLFVNYNVKSPITGNDLSPPVSFNLMFKTFIGPGGNMPGYLRPETAQGIFLNFKRLLEFNQGKLPFAAAQIGNSFRNEISPRSGLIRVREFTMAEIEHFVDPSEKDHPKFQNVADLHLYLYSAKAQVSGQSARKMRLGDAVEQGVINNTVLGYFIGRIYLYLTKVGISPDKLRFRQHMENEMAHYACDCWDAESKTSYGWIEIVGCADRSCYDLSCHARATKVPLVAEKPLKEPKTVNVVQFEPSKGAIGKAYKKDAKLVMEYLAICDECYITEMEMLLNEKGEFTIETEGKTFQLTKDMINVKRFQKTLYVEEVVPNVIEPSFGLGRIMYTVFEHTFHVREGDEQRTFFSFPAVVAPFKCSVLPLSQNQEFMPFVKELSEALTRHGVSHKVDDSSGSIGRRYARTDEIGVAFGVTIDFDTVNKTPHTATLRDRDSMRQIRAEISELPSIVQDLANGNITWADVEARYPLFEGQETGKKETIEE"
–,–,binds,binds,binds,binds,–,full-length human GlyRS (enzyme) MDGAGAEEVLAPLRLAVRQQGDLVRKLKEDKAPQVDVDKAVAELKARKRVLEAKELALQPKDDIVDRAKMEDTLKRRFFYDQAFAIYGGVSGLYDFGPVGCALKNNIIQTWRQHFIQEEQILEIDCTMLTPEPVLKTSGHVDKFADFMVKDVKNGECFRADHLLKAHLQKLMSDKKCSVEKKSEMESVLAQLDNYGQQELADLFVNYNVKSPITGNDLSPPVSFNLMFKTFIGPGGNMPGYLRPETAQGIFLNFKRLLEFNQGKLPFAAAQIGNSFRNEISPRSGLIRVREFTMAEIEHFVDPSEKDHPKFQNVADLHLYLYSAKAQVSGQSARKMRLGDAVEQGVINNTVLGYFIGRIYLYLTKVGISPDKLRFRQHMENEMAHYACDCWDAESKTSYGWIEIVGCADRSCYDLSCHARATKVPLVAEKPLKEPKTVNVVQFEPSKGAIGKAYKKDAKLVMEYLAICDECYITEMEMLLNEKGEFTIETEGKTFQLTKDMINVKRFQKTLYVEEVVPNVIEPSFGLGRIMYTVFEHTFHVREGDEQRTFFSFPAVVAPFKCSVLPLSQNQEFMPFVKELSEALTRHGVSHKVDDSSGSIGRRYARTDEIGVAFGVTIDFDTVNKTPHTATLRDRDSMRQIRAEISELPSIVQDLANGNITWADVEARYPLFEGQETGKKETIEE
–,–,–,–,–,–,binds,"V5-tagged GlyRS expressed in HEK293 cells (enzyme, not shown: small tags and cut ends) MDGAGAEEVLAPLRLAVRQQGDLVRKLKEDKAPQVDVDKAVAELKARKRVLEAKELALQPKDDIVDRAKMEDTLKRRFFYDQAFAIYGGVSGLYDFGPVGCALKNNIIQTWRQHFIQEEQILEIDCTMLTPEPVLKTSGHVDKFADFMVKDVKNGECFRADHLLKAHLQKLMSDKKCSVEKKSEMESVLAQLDNYGQQELADLFVNYNVKSPITGNDLSPPVSFNLMFKTFIGPGGNMPGYLRPETAQGIFLNFKRLLEFNQGKLPFAAAQIGNSFRNEISPRSGLIRVREFTMAEIEHFVDPSEKDHPKFQNVADLHLYLYSAKAQVSGQSARKMRLGDAVEQGVINNTVLGYFIGRIYLYLTKVGISPDKLRFRQHMENEMAHYACDCWDAESKTSYGWIEIVGCADRSCYDLSCHARATKVPLVAEKPLKEPKTVNVVQFEPSKGAIGKAYKKDAKLVMEYLAICDECYITEMEMLLNEKGEFTIETEGKTFQLTKDMINVKRFQKTLYVEEVVPNVIEPSFGLGRIMYTVFEHTFHVREGDEQRTFFSFPAVVAPFKCSVLPLSQNQEFMPFVKELSEALTRHGVSHKVDDSSGSIGRRYARTDEIGVAFGVTIDFDTVNKTPHTATLRDRDSMRQIRAEISELPSIVQDLANGNITWADVEARYPLFEGQETGKKETIEE"
–,–,–,–,binds,binds,–,ABD (V541-E685) of GlyRS (enzyme) VREGDEQRTFFSFPAVVAPFKCSVLPLSQNQEFMPFVKELSEALTRHGVSHKVDDSSGSIGRRYARTDEIGVAFGVTIDFDTVNKTPHTATLRDRDSMRQIRAEISELPSIVQDLANGNITWADVEARYPLFEGQETGKKETIEE
